According to article PMC8688469:
These are yes or no findings as the source states them, for the method shown. For part of these data: Binding seen in cells or lysates may run through a third protein. Some binding calls cover weakened binding; strength is not graded here. Values belong to the substance of their own block, whether it stands above or below them.

By UniProt entry, the sequences of proteins in these tests, tags left out.
UniProt Q96SN8: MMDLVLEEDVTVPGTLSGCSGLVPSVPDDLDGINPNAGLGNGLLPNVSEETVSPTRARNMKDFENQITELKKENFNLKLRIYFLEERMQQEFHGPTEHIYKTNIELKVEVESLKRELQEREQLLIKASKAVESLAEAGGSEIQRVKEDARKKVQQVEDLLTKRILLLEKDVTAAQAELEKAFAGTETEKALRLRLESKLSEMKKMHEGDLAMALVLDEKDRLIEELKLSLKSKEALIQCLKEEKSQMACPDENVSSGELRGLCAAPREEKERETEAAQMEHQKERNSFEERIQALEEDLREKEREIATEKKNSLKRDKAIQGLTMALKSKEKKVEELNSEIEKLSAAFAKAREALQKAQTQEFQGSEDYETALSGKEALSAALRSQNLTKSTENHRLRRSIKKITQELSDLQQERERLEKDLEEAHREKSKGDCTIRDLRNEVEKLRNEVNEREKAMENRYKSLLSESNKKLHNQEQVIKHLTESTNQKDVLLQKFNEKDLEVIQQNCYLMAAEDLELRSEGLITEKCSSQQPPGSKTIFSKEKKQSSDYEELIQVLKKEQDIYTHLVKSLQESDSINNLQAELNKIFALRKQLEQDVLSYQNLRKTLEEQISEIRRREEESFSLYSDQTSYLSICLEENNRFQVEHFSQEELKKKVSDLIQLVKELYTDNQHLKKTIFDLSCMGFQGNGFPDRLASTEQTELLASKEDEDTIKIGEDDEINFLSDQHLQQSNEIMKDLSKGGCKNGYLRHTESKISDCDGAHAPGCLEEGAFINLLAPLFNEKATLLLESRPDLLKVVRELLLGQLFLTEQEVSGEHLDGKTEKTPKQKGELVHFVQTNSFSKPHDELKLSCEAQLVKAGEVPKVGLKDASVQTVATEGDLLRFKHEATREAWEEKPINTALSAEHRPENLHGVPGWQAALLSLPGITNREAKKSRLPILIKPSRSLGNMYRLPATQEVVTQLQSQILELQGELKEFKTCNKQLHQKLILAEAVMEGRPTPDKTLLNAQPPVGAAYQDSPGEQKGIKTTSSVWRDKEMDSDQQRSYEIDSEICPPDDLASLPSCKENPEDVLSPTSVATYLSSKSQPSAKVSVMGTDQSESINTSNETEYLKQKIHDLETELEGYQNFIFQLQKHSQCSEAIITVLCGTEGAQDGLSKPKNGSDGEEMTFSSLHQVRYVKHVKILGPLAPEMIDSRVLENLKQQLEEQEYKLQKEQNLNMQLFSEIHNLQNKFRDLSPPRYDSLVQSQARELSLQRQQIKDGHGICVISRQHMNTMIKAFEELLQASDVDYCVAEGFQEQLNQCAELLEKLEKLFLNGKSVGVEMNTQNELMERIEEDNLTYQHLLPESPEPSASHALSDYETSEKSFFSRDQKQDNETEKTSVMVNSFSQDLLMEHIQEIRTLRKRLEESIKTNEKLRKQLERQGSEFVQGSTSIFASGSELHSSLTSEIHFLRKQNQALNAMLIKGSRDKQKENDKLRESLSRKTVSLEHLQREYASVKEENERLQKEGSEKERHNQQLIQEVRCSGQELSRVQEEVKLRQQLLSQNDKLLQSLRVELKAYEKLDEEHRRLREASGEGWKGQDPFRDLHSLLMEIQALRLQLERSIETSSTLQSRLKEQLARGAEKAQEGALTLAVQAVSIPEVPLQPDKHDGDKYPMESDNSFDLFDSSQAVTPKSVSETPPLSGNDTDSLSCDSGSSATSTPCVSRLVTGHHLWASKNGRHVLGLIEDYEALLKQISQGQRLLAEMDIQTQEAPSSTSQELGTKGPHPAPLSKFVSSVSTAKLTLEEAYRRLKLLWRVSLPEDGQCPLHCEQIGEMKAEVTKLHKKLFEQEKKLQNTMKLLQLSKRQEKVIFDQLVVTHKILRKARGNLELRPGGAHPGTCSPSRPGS
UniProt P49841: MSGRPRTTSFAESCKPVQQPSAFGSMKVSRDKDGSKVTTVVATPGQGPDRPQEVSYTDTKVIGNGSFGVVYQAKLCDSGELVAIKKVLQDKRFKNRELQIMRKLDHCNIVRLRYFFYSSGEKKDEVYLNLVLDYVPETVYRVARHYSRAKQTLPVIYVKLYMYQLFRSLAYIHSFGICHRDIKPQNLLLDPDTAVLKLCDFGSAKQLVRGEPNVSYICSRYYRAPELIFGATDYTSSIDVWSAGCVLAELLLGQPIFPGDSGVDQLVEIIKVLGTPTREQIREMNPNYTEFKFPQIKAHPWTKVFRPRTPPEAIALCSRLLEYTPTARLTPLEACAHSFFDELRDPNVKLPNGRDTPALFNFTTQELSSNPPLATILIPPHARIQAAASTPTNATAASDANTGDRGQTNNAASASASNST

What was measured:
Myc-tagged CDK5RAP2 = Myc-tagged CDK5RAP2 (UniProt Q96SN8); test: co-IP; lysates of cells co-transfected with Myc-CDK5RAP2 and FLAG-GSK3β; IP with Myc or FLAG antibody on protein A/G agarose beads, overnight at 4 °C; lysis and wash buffer 50 mM Tris pH 8.0, 150 mM NaCl, 1% NP-40, 10 mM EDTA, 5% glycerol; both IPs blotted with Myc and FLAG antibodies
FLAG-tagged GSK3β = FLAG-tagged GSK3β (UniProt P49841); test: as above
GST-CDK5RAP2 = GST-CDK5RAP2 (UniProt Q96SN8); test: pull-down; GST-CDK5RAP2 (1 μmole) bound to glutathione-agarose beads mixed with GSK3β (2 μg) at 4 °C for 2 h; washed 4 times with 20 mM Tris-HCl pH 8.0, 200 mM NaCl, 1 mM EDTA, 0.5% NP-40; blots for GST and GSK3β; both purified

- binding (Myc-tagged CDK5RAP2): binds
Substance: FLAG-tagged GSK3β (from UniProt P49841 1-420) (enzyme)

- binding (FLAG-tagged GSK3β): binds
Substance: Myc-tagged CDK5RAP2 (from UniProt Q96SN8 1-1893)

- binding (GST-CDK5RAP2): binds
Substance: GSK3β protein (14-306) (from UniProt P49841 1-420) (enzyme)
